Here are results for three molecules from article PMC2694148.

By UniProt entry, the sequences of proteins in these tests, tags left out.
UniProt P50552: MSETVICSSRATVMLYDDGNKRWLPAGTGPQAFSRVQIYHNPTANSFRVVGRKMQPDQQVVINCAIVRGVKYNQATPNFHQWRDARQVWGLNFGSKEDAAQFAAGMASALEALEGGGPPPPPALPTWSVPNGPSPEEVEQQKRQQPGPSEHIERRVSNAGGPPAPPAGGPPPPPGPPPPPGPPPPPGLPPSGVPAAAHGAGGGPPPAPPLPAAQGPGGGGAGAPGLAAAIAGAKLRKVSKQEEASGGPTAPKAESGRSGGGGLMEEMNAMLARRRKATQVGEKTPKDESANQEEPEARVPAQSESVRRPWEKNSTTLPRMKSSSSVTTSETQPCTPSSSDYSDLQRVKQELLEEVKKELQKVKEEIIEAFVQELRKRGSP

These are yes or no findings as the source states them, for the method shown. Some results given as binding are weak or reduced against the parent protein; the word gives no strength. Tags and fused reporters may be left off the sequences shown.

B1: mouse profilin-3 (mProfilin3), yeast two-hybrid fusion (protein, UniProt Q9DAD6 1-137)
chain: MSDWKGYISAVLRDQRIDDVAIVGHSDNRCVWASRPGGLLAAISPQEVGVLTGPDRHTFLQTGLSVAGRRCCVIRDYLLAEGDGVLDARTKGLDGRAICVGHTPRALLVLMGRRGVHGGILNKTVHDLIGGLREQCS
B2: profilin-4 (PFN4), yeast two-hybrid fusion (protein, UniProt Q9D6I3 1-129)
chain: MSHLQNLLLDTLLGTKHVDSAALIKLQEKTLCVTSPGFSVMPSDVRTLLNGFAKNPLLTRREGLYFKEKDYKCVRADDYSLYAKNENTGVVVVKTNMYLVVATYTAGMYPSVCVEATEKLGEYLRKKGN

The experiment deals with vasodilator-stimulated phosphoprotein (VASP), yeast two-hybrid fusion (human) (UniProt P50552). Put plainly: two-hybrid; pairwise matings ("minimatings") of yeast strains AH109 and Y187, pGBKT7 and pGADT7 (Matchmaker Two-Hybrid System 3); growth on SD/-LTH, SD/-LTA, SD/-LTHA; quantitative β-galactosidase (lacZ) assay of diploids from SD/-LTHA; 30°C.
Turning to “human profilin-2a (huProfilin2a), yeast two-hybrid fusion (from UniProt P35080-1 1-140)”, the binding entry was “binds”. Then B1, with “no binding”. On to B2, for which the binding result is given as “no binding”.
